Results are given in words; binding and its absence hold for the method and conditions named. In cells and extracts the contact can be indirect. Here binding means that the protein was enriched with, or labelled near, the bait; the list need not be complete.
Molecular target: N-terminally Flag- and HA-tagged cyclin E1 (cyclin E1^Ntag knock-in allele) (mouse) (UniProt Q61457)
Assay: affinity purification with mass spectrometry; sequential anti-Flag and anti-HA purification from spleens and thymuses of cyclin E1 Ntag/Ntag and Cdk2-/-/cyclin E1 Ntag/Ntag mice, iTRAQ labelling and quantitative LC-MS

Protein sequences, listed by entry. Tags and fused reporters are not part of them.
UniProt Q61457: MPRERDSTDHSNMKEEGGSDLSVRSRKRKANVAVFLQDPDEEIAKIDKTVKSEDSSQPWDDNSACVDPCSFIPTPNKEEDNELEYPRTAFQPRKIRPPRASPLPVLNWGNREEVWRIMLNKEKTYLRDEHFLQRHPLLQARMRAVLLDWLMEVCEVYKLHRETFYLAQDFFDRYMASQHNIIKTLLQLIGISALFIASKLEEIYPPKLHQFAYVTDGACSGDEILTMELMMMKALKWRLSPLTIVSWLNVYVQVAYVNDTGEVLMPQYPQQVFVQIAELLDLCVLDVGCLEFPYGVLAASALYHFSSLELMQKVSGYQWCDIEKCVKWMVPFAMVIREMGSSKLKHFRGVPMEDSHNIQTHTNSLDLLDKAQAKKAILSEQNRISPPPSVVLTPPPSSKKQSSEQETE

B1: Cdk4, mouse (enzyme, UniProt P30285 1-303)
chain: MAATRYEPVAEIGVGAYGTVYKARDPHSGHFVALKSVRVPNGGAAGGGLPVSTVREVALLRRLEAFEHPNVVRLMDVCATSRTDRDIKVTLVFEHIDQDLRTYLDKAPPPGLPVETIKDLMRQFLSGLDFLHANCIVHRDLKPENILVTSNGTVKLADFGLARIYSYQMALTPVVVTLWYRAPEVLLQSTYATPVDMWSVGCIFAEMFRRKPLFCGNSEADQLGKIFDLIGLPPEDDWPREVSLPRGAFAPRGPRPVQSVVPEMEESGAQLLLEMLTFNPHKRISAFRALQHSYLHKEESDAE
B1 was tested, and the binding was “binds”.

— paper PMC5102403
